{"source": "patent US9993522B2", "about": "“Treatment of pain by inhibition of USP5 de-ubiquitinase” (UTI LIMITED PARTNERSHIP, priority 2012, dated 2018)", "key": {"[1]": {"test_system": "CCI-injured mice", "assay": "Chronic constriction injury (CCI)-induced neuropathy, mechanical hyperalgesia", "assay_type": "in vivo"}, "[2]": {"test_system": "CFA-injected mice", "assay": "CFA-induced persistent inflammatory pain, mechanical hyperalgesia", "settings": "for effect on paw withdrawal thresholds in mibefradil treated mice: 10.0 μg/i.t. together with mibefradil 10.0 μg/i.t.; for mechanical hyperalgesia induced by CFA: 3 days after CFA"}, "[3]": {"test_system": "Cav3.2 null mice", "assay": "CFA-induced mechanical hyperalgesia in Cav3.2 null mice", "assay_type": "in vivo", "settings": "10.0 μg/i.t."}, "[4]": {"test_system": "Cav3.2", "assay": "Cav3.2 protein levels in ipsilateral L5 DRG of CFA injected mice after i.t. peptide (western blot)", "assay_type": "in vivo", "settings": "10 μg i.t. three days after CFA, L5 DRG 90 minutes later; vs Tat-Cav3.2 CT peptide or naïve mice"}, "[5]": {"test_system": "naïve (non-injured) mice", "assay": "Basal mechanical threshold of non-injured mice", "assay_type": "in vivo", "settings": "10.0 μg/i.t., vs Tat-3.2-CT control"}}, "note": "Part of at least one peptide drawing is inferred or uncertain, most often the ends. Residues, ends and D or L forms follow the SMILES beside them."}
{"smiles": "CC(C)C[C@H](NC(=O)[C@H](CCCNC(=N)N)NC(=O)[C@H](CCCNC(=N)N)NC(=O)[C@H](CC(C)C)NC(=O)[C@H](CCCNC(=N)N)NC(=O)[C@H](CCCCN)NC(=O)[C@H](CCC(=O)O)NC(=O)[C@H](CCC(=O)O)NC(=O)[C@H](CCCNC(=N)N)NC(=O)[C@H](CCCNC(=N)N)NC(=O)[C@H](CCCNC(=N)N)NC(=O)[C@H](C)NC(=O)[C@H](CCC(=O)O)NC(=O)[C@H](CCCNC(=N)N)NC(=O)[C@H](CCCNC(=N)N)NC(=O)[C@H](CCCNC(=N)N)NC(=O)[C@H](CCC(N)=O)NC(=O)[C@H](CCCNC(=N)N)NC(=O)[C@H](CCCNC(=N)N)NC(=O)[C@H](CCCCN)NC(=O)[C@H](CCCCN)NC(=O)[C@H](CCCNC(=N)N)NC(=O)CNC(=O)[C@@H](N)Cc1ccc(O)cc1)C(=O)N[C@@H](CCC(=O)O)C(=O)N[C@@H](CCCNC(=N)N)C(=O)N[C@@H](CCCNC(=N)N)C(=O)N[C@@H](CCCNC(=N)N)C(=O)N[C@@H](CCCNC(=N)N)C(=O)N[C@@H](CCCCN)C(=O)N[C@@H](C)C(=O)N[C@@H](CCC(N)=O)C(=O)O", "note": "[Tat-3.2-III-IV linker peptide] (H-YGRKKRRQRRREARRREEKRLRRLERRRRKAQ-OH)", "values": [{"measurement": "mechanical hyperalgesia in CCI-neuropathic mice", "setting": "[1]; 10 μg/i.t., 5 days after CCI", "result": "partially reversed the mechanical hyperalgesia"}, {"measurement": "mechanical hyperalgesia under longer term chronic pain conditions", "setting": "[1]; 10.0 μg/i.t., 20 days after nerve injury", "result": "able the reverse mechanical hyperalgesia"}, {"measurement": "time to full development of the effect", "setting": "[1]; 10 μg/i.t., CCI", "result": "less than one"}, {"measurement": "effect on paw withdrawal thresholds in mibefradil treated mice", "setting": "[2]; CFA", "result": "lack of Tat-3.2-III-IV effect"}, {"measurement": "effect on paw withdrawal thresholds in mibefradil treated mice", "setting": "[2]; CFA, listed as Tat-3.2-III-IV peptide", "result": "did not augment the effects of mibefradil"}, {"measurement": "duration of antihyperalgesia when delivered i.p.", "setting": "[2]; 15 mg/kg i.p., CFA", "result": "up to 6 hours"}, {"measurement": "antihyperalgesia when delivered i.p.", "setting": "[2]; 15 mg/kg i.p., CFA, vs C-terminus control", "result": "significant and long-lasting"}, {"measurement": "mechanical hyperalgesia induced by CFA", "setting": "[2]; peptide 10 μg i.t., listed as Tat-3.2-III-IV peptide", "result": "significant reversal of paw withdrawal thresholds"}, {"measurement": "mechanical hyperalgesia induced by CFA", "setting": "[2]; peptide 10 μg i.t., listed as Tat-Cav3.21569-1589 III-IV linker peptide", "result": "attenuated the mechanical hyperalgesia induced by CFA"}, {"measurement": "persistence of the effect", "setting": "[2]; peptide 10 μg i.t., CFA", "result": "up to six"}, {"measurement": "time course of development of the effect", "setting": "[2]; peptide 10 μg i.t., CFA", "result": "~30", "unit": "min"}, {"measurement": "sensitivity of Cav3.2 null mice to the peptide (mechanical hyperalgesia, CFA)", "setting": "[3]", "result": "completely insensitive"}, {"measurement": "reduction of total Cav3.2 levels in mDRGs", "setting": "[4]", "result": "~50", "unit": "%"}, {"measurement": "basal mechanical threshold", "setting": "[5]", "result": "No differences"}]}
